Measurements reported in PubChem BioAssay AID488900 (National Center for Advancing Translational Sciences (NCATS), 2010).
This list was built around the results that the source calls inconclusive (neither active nor inactive); the mix of calls is not that of the screen. Potencies of inconclusive entries are doubtful fits and often do not repeat. Calls of active or inactive are those of the source. Calls come from the whole dose curve; as a rule, active = well fitted curve in the direction sought with a large enough effect; inconclusive = small, poorly fitted or top-dose-only effect, or effect the other way, or another doubt; inactive = no such curve, though single readings can be large or run the other way.

Test: Secondary Assay for lipid storage modulators: Hela cell LDSA assay for probe SAR
Conditions: HeLa lipid droplet accumulation, BODIPY 493/503 cytometry, oleate-fed; activity change, negative = less lipid storage: at 46.1 µM (top of the series)
Text: NIH Molecular Libraries Probe Production Centers Network [MLPCN] NIH Chemical Genomics Center [NCGC] MLPCN Grant: 1 R03 MH085686-01 Assay Submitter (PI): Beller, Mathias; Max-Planck-Institut fur Biophysikalische Chemie NCGC Assay Overview: Storing lipids as a reservoir for energy or the anabolism of elementary metabolites is a common feature of probably all cells and is conserved from bacteria to humans. The universal cellular lipid storage organelle is the so-called lipid storage droplet (LD). Although ubiquitous, LDs share a simple structure composed of a hydrophobic core that harbors the storage lipids, which is shielded by a droplet-specific phospholipid monolayer to which proteins are attached. The current model of LD biogenesis involves an incorporation of the lipid core into the membrane leaflets of the endoplasmic reticulum (ER) followed by a subsequent budding-like maturation of a LD, which ultimately pinches off. Once released, LD volume can increase by localized lipogenesis or fusion of existing droplet. Storage lipids are re-mobilized enzymatically by lipase activity. Lipase regulation in the adipocyte is heavily studied and involves multiple components including catecholamine signaling, the LD-associated proteins Perilipin and comparative gene identification (CGI-58) and at least two lipases named hormone sensitive lipase (HSL) and adipocyte triglyceride lipase (ATGL). LD regulation outside of the adipocyte is poorly understood and only few components are known. However, there is an urgent need to learn more about ectopic fat depots as mislocalized storage of lipids, for example in the liver or muscle, is an eminent health problem associated with insulin resistance or the metabolic syndrome.
NCGC Assay Protocol Summary: The assay was performed with Hela cells, using an oleic acid feeding protocol similar to the S3 assay. We dispensed 4 uL of cells to give 700 cells/well into Greiner bio-one 1,536-well plates (black walled, clear bottom). Triacsin C (Sigma-Aldrich T-4540), an inhibitor of long-chain fatty acyl CoA synthetase that blocks synthesis of triglycerides, was used as a positive control for lipid under-storage using a final concentration of 20 uM. The orexin antagonist, SB408124 - previously identified to stimulate lipid over-storage, was used as a positive control for lipid over-storage using a final concentration of 20 uM. A total of 23 nL of compound solution of different concentrations were transferred to the assay plates using a Kalypsys pin tool equipped with a 1,536-pin array containing 10-nL slotted pins (FP1S10, 0.457-mm diameter, 50.8 mm long; V&P Scientific). One microliter of oleic acid was added (400 uM final concentration), and the plate was lidded with stainless steel rubber gasket lined lids containing pinholes. After 18-24 h incubation at […] and 95% humidity, 4 uL of the dyes BODIPY 493/503 (Molecular Probes) and the Cell Tracker Red CMTPX dye (Molecular Probes) were added to the wells to stain lipid droplets and enumerate cell number, respectively. Fluorescence was detected by excitation of the fluorophores with a 488-nm laser on an Acumen Explorer (TTP Lab Tech). The total intensity in channel 2 (500-530 nm) reflected lipid droplet accumulation. Cells were detected using channel 3 (575-640 nm) with 5-um width and 100-um depth filters. The ratio of the number of objects in PMT channel 2 over the number of objects in PMT channel 3 was also calculated. Percent activity was computed relative to an internal control (100% inhibited lipid droplet deposition due to the presence of 20 uM Triacsin C), which was added to 32 wells/plate.
In the case of O=C(NC1CCCc2c1cnn2-c1ccc(F)cc1F)C1CC1 (stereo not given), the Potency is reported as inconclusive: 7.05 µM [activator, partial curve, poor fit]. With CCOC(=O)C1CCCN(C(=O)C2(NC(=O)Nc3ccc(F)cc3F)CCCCC2)C1 (stereo not given) the Potency was inconclusive: 2.5 µM [activator, full curve]. For CCOc1ccc(CCNC(=O)c2cc3sccc3n2Cc2ccccc2)cc1OCC, the Potency was inconclusive: 0.025 µM [falling, full curve, poor fit]. With O=C(Nc1cccc2nn(-c3ccc(F)cc3)cc12)c1ccccn1 the activity change, negative = less lipid storage was inconclusive: 94.6% [activator]. For O=C(NC1CCCc2c1cnn2-c1ccc(F)cc1F)c1cnccn1 (stereo not given), the Potency was inconclusive: 4.45 µM [activator, full curve, poor fit]. In the case of COCCn1c(-c2ccc(C)cc2)cnc1SCC(=O)Nc1nc(C)cs1, the Potency is reported as inconclusive: 12.5 µM [activator, partial curve]. With O=C(NC1CCCc2c1cnn2-c1ccc(F)cc1F)c1ccn[nH]1 (stereo not given) the Potency was “inactive”. In the case of CCOc1ccc(CCNC(=O)c2cc3sccc3n2C)cc1, the Potency is reported as inconclusive: 12.5 µM [activator, partial curve, poor fit]. For O=C(NC1CCCc2c1cnn2-c1ccc(F)cc1F)c1ccsc1 (stereo not given), the Potency was inconclusive: 9.96 µM [activator, partial curve]. In the case of CCn1c(-c2ccc(C)cc2)cnc1SCC(=O)Nc1nc(C)cs1, the Potency is reported as inconclusive: 9.96 µM [activator, full curve]. For O=C(NC1CCCc2c1cnn2-c1ccc(F)cc1F)c1cnon1 (stereo not given), the Potency was inconclusive: 4.99 µM [activator, full curve, poor fit]. With O=C(Nc1cccc2c1cnn2-c1ccc(F)cc1)c1ccccn1 the Potency was inconclusive: 35.3 µM [activator, single point]. For Cc1ccc(-c2cnc(SCC(=O)Nc3nc(C)cs3)n2Cc2ccco2)cc1, the Potency was “inactive”. In the case of O=C(NC1CCCCC1)NC1(C(=O)N2CCCC2)CCCCC1, the Potency is reported as “inactive”. With Cc1cc(NC(=O)Nc2ccc(N(C)C)cc2)c2cc(F)cc(F)c2n1 the Potency was inconclusive: 19.9 µM [activator, partial curve, poor fit]. With O=C(NC1CCCc2c1cnn2-c1ccc(F)cc1F)C1CCCCN1 (stereo not given) the Potency was “inactive”. For COc1ccc(-c2cnc(SCC(=O)Nc3nc(C)cs3)n2Cc2ccco2)cc1, the Potency was “inactive”. In the case of COc1ccc(-c2cnc(SCC(=O)Nc3nccs3)n2Cc2ccccc2)cc1, the Potency is reported as “inactive”. For CCOC(=O)C1CCN(C(=O)C2(NC(=O)NCc3ccccc3)CCCCC2)CC1, the Potency was “inactive”. For O=C(NC1CCCc2c1cnn2-c1ccc(F)cc1F)c1ccc2cc[nH]c2c1 (stereo not given), the Potency was inconclusive: 7.71 µM [activator, full curve]. In the case of CCOc1ccc(CCNC(=O)c2cc3sc(CC)cc3n2C)cc1OCC, the Potency is reported as active: 0.217 µM. In the case of CCOc1ccc(NC(=O)NC2(C(=O)N3CCCCC3)CCCCC2)cc1, the Potency is reported as inconclusive: 7.91 µM [activator, partial curve, poor fit]. In the case of COc1ccc(Cl)cc1NC(=S)N1CCN(c2ccccn2)CC1, the Potency is reported as inconclusive: 15.8 µM [activator, partial curve, poor fit]. With CCOc1ccc(CCNC(=O)c2cc3sccc3n2C(C)C)cc1OCC the Potency was inconclusive: 0.0223 µM [falling, full curve, poor fit]. For O=C(NC1CCCc2c1cnn2-c1ccccc1F)c1cccc2nccnc12 (stereo not given), the Potency was inconclusive: 4.87 µM [falling, full curve, poor fit]. For Cc1csc(NC(=O)CSc2ncc(-c3ccccc3)n2Cc2ccco2)n1, the Potency was inconclusive: 3.15 µM [activator, full curve]. In the case of O=C(Cc1ccccc1)NC1CCCc2c1cnn2-c1ccc(F)cc1F (stereo not given), the Potency is reported as “inactive”. With O=C(NC1CCCc2c1cnn2-c1ccc(F)cc1F)C1CCCCC1 (stereo not given) the Potency was inconclusive: 1.4 µM [activator, full curve, poor fit]. For CC1=C(C(=O)NC2CCCc3c2cnn3-c2ccc(F)cc2F)OCCO1 (stereo not given), the Potency was inconclusive: 0.353 µM [activator, full curve, poor fit]. For O=C(NC1CCCc2c1cnn2-c1ccc(F)cc1F)c1cccs1 (stereo not given), the Potency was inconclusive: 12.5 µM [activator, partial curve]. In the case of O=C(NC1CCCc2c1cnn2-c1ccc(F)cc1F)c1ccncc1 (stereo not given), the Potency is reported as inconclusive: 2.23 µM [activator, full curve]. For CCn1c(C(=O)NCc2ccc(OC)c(OC)c2)cc2sccc21, the Potency was inconclusive: 15.8 µM [activator, partial curve]. In the case of CCOC(=O)C1CCN(C(=O)C2(NC(=O)Nc3ccc(F)cc3F)CCCCC2)CC1, the activity change, negative = less lipid storage is reported as inconclusive: -24.7% [activator]. With CCn1c(C(=O)NCCc2ccc(OC)cc2)cc2sccc21 the Potency was inconclusive: 22.3 µM [activator, partial curve, poor fit]. With O=C(NC1CCCc2c1cnn2-c1ccc(F)cc1F)c1cccc(=O)[nH]1 (stereo not given) the Potency was inconclusive: 2.23 µM [activator, full curve]. For Cc1ccc(-c2cnc(SCC(=O)Nc3nccs3)n2Cc2ccco2)cc1, the Potency was inconclusive: 2.5 µM [activator, partial curve, poor fit]. In the case of CCn1c(C(=O)NCCc2ccc(OC)c(OC)c2)cc2sccc21, the Potency is reported as inconclusive: 22.3 µM [activator, single point]. In the case of O=C(NC1CCCc2c1cnn2-c1cc(F)cc(F)c1)c1cccc2nccnc12 (stereo not given), the Potency is reported as active: 8.65 µM. In the case of O=C(N[C@H]1CCCc2c1cnn2-c1ccc(F)cc1F)c1ccccn1, the Potency is reported as inconclusive: 0.0089 µM [falling, full curve, poor fit]. With COc1ccc(-n2ncc3c2CCCC3NC(=O)c2cnc(C)cn2)cc1 (stereo not given) the Potency was inconclusive: 3.97 µM [activator, partial curve].
